Measured values published in PubChem BioAssay AID588590 (National Center for Advancing Translational Sciences (NCATS), 2011).
Several values for one entry are separate records, joined by “and”; a condition that tells them apart may be missing. Identical values can stand only once. Out of some 390,000 compounds screened, about 4,000 (1%) were called active. Inconclusive results, whose numbers are uncertain, are shown with a selection of clear calls. Calls follow the shape of the dose curve; as a rule, active = well fitted inhibition curve with a large enough effect; inconclusive = small, poorly fitted or top-dose-only effect, or another doubt; inactive = no such curve, though single readings can be large or run the other way. Potencies beside an inconclusive call are fits to weak or partial responses and may not hold up.

Chains of the proteins cited; added tags and fusions are not shown. Lines headed by an entry give the natural chain unless they say otherwise; changes in a name come on top.
UniProt Q9UNA4: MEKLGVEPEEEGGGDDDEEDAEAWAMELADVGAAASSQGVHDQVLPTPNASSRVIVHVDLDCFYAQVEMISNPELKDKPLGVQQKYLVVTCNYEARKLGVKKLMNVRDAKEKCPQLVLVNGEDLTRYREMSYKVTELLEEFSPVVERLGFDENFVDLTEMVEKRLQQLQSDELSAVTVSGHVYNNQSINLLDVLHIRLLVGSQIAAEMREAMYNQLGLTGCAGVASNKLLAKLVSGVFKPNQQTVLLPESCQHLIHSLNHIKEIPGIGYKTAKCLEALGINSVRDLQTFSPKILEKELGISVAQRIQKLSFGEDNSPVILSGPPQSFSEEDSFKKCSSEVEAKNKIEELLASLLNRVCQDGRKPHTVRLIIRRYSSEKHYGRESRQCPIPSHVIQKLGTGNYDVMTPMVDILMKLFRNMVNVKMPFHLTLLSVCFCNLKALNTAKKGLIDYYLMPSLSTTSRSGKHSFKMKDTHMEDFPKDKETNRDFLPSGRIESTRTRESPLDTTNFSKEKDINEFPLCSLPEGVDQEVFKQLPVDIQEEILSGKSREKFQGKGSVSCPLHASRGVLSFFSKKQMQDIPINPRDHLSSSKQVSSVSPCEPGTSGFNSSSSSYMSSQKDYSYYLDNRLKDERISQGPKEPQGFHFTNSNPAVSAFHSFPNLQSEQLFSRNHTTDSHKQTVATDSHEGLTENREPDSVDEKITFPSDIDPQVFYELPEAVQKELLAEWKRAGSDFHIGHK

Molecular target: DNA polymerase iota (Homo sapiens) (UniProt Q9UNA4)
Test: qHTS for Inhibitors of Polymerase Iota
Details: Pol iota fluorescent replication assay, 10 min; series mostly up to 115 µM; activity, negative = inhibition: at the top concentration
In short: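 Fluorescent replication assay read twice, at 0 min and 10 min after adding 50 nM (final) substrate. Enzyme (10 nM) and compounds were first incubated 15 min at room temperature; enzyme-free buffer wells were negative controls.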
Potency is read from the fitted curve at half-maximal effect.

Row | Structure (SMILES) | Potency | activity, negative = inhibition
1 | O=[N+]([O-])c1ccc(S(=O)Cc2ccccc2)c([N+](=O)[O-])c1 (stereo not drawn) | inconclusive: 28.2 µM [inhibitor, partial curve, poor fit] | –
2 | Cc1ccc2c(c1)N(C(=O)CCC(=O)NCc1cccc(F)c1)CC(C)O2 (stereo not drawn) | – | inactive: -5.54%
3 | COc1cccc(NC(=O)c2c(C)oc3nc(C)nc(N4CCCC4)c23)c1 | – | inactive: -0.578%
4 | CCN(CC)c1ccc2cc(-c3nc4sc5c(c4c(=O)[nH]3)CCC(C(C)(C)C)C5)c(=O)oc2c1 (stereo not drawn) | inconclusive: 35.5 µM [inhibitor, partial curve, poor fit] | –
5 | COc1ccccc1Nc1nnc(C)c(=O)[nH]1 | – | inactive: 15.5%
6 | COc1ccc(/C=N/NC(=O)c2ccco2)cc1COc1ccc(F)cc1 | active: 79.4 µM | –
7 | CC(=O)c1cccc(NC(=O)c2ccc3nc(Cc4ccccc4)oc3c2)c1 | inconclusive: 79.4 µM [inhibitor, partial curve] | –
8 | O=C(O)c1cccc(S(=O)(=O)Nc2ccc3oc(=O)sc3c2)c1 | inconclusive: 3.16 µM [inhibitor, partial curve, poor fit] | –
9 | CC1CCN(C(=O)Cn2c(-c3cccs3)cc3cc(Cl)ccc32)CC1 | – | inactive: 19.9%
10 | COc1ccc(-c2c(C)c3ccc(O)c(CN4CCOCC4)c3oc2=O)cc1OC | – | inactive: -5.09%
11 | CC(C)c1ccc(NC(=O)C(c2ccccc2)N2CCN(C(=O)c3ccco3)CC2)cc1 (stereo not drawn) | inconclusive: 14.1 µM [inhibitor, partial curve, poor fit] | –
12 | O=C(CCN1CCCCCC1)Nc1ccc(F)cc1 | inconclusive: 89.1 µM [inhibitor, single point] | –
13 | CCOc1ccc(-c2nnc(SCC(=O)Nc3cccc(C#N)c3)o2)cc1 | inconclusive: 39.8 µM [inhibitor, partial curve] | –
14 | CCC(C)C(NC(=O)OC(C)(C)C)C(=O)NC1COC2CC(n3ccc(=O)[nH]c3=O)OC12 (stereo not drawn) | inconclusive: 7.94 µM [inhibitor, partial curve] | –
15 | COc1ccccc1OCCn1c(SCC(=O)O)nc2ccccc21 | inconclusive: 35.5 µM [inhibitor, partial curve, poor fit] | –
16 | O=C(N/N=C/c1cc2c(cc1Cl)OCO2)c1cc(-c2ccccc2)n[nH]1 | inconclusive: 39.8 µM [inhibitor, single point] | –
17 | O=C(O)c1ccc(-c2sc(Nc3ccccc3)n[n+]2-c2ccccc2)cc1 | inconclusive: 17.8 µM [inhibitor, single point] | –
18 | Cc1cc(C)c2c(c1)c(C)cc1nnc(SCC(=O)c3ccccc3)n12 | – | inactive: 31.9%
19 | Nc1cccc(S(=O)(=O)N2CCOCC2)c1 | – | inactive: 48.6%
20 | COc1ccc2nc(NC(=O)Cc3ccc(OC)c(S(=O)(=O)N4CCOCC4)c3)sc2c1 | inconclusive: 3.16 µM [inhibitor, single point] | –
21 | COC(=O)c1ccc2c(c1)C(C)(C)C(/C=C/c1ccc(OC)c(OC)c1OC)=[N+]2C | inconclusive: 7.94 µM [inhibitor, full curve, poor fit] | –

Row | Structure (SMILES) | Potency | activity, negative = inhibition
22 | O=c1cc(-c2ccccc2)c2ccc3c(c2o1)CN(Cc1cccc(Cl)c1)CO3 | inconclusive: 70.8 µM [inhibitor, partial curve] | –
23 | O=C(CSc1nc2c(c(=O)n1-c1ccc(Cl)cc1)SCC2)N1CCOCC1 | inconclusive: 10 µM [inhibitor, partial curve, poor fit] | –
24 | CCOc1c2ccc(C(=O)NCc3ccco3)cc2nn1CCOC | – | inactive: 14.7%
25 | COc1cccc(NCc2cccn2-c2nnc(N3CCC(C)CC3)s2)c1 | – | inactive: 7.56%
26 | COc1ccc(Br)cc1/C=N/Nc1ccc(S(=O)(=O)Nc2ccccc2C(=O)O)cc1[N+](=O)[O-] | inconclusive: 17.8 µM [inhibitor, full curve, poor fit] | –
27 | COc1ccc(N(C(=O)CNC(=O)c2ccco2)C(C(=O)NC2CCCCC2)c2cccnc2)cc1 (stereo not drawn) | – | inactive: 26.4%
28 | COc1ccc(C(=O)Nc2cccc(C(=O)OCc3cc(=O)n4nc(C5CC5)sc4n3)c2)cc1 | inconclusive: 79.4 µM [inhibitor, partial curve, poor fit] | –
29 | CC1(C)CC(=O)C(C=Nc2ccc(NC3=C(C#N)C(=O)CC(C)(C)C3)cc2)=C(O)C1 | inconclusive: 89.1 µM [inhibitor, single point] | –
30 | Nc1c(C(=O)Nc2ccc(F)cc2)sc2nc(-c3cccs3)cc(C(F)(F)F)c12 | inconclusive: 89.1 µM [inhibitor, single point] | –
31 | COC(=O)c1ccc([C@@H]2Nc3c(OC)ccc(C)c3[C@@H]3C=CC[C@@H]32)cc1 | inconclusive: 20 µM [inhibitor, partial curve, poor fit] | –
32 | CS(=O)(=O)N1CCN(c2ccc([N+](=O)[O-])c(NCc3ccc(Cl)cc3)c2)CC1 | active: 8.91 µM | –
33 | Cc1cc(C)nc(N(C#N)CC(=O)Nc2ccccc2)n1 | inconclusive: 79.4 µM [inhibitor, partial curve, poor fit] | –
34 | Cn1ccc(C(=O)Nc2sc3c(c2C#N)CCC3)n1 | inconclusive: 39.8 µM [inhibitor, partial curve, poor fit] | –
35 | O=C(O)c1ccc(/C=C/C(=O)c2ccc3c(c2)OCCCO3)cc1 | inconclusive: 11.2 µM [inhibitor, full curve, poor fit] | –
36 | Cc1ccc(-c2nc3ccccc3[nH]2)s1 | inconclusive: 22.4 µM [inhibitor, single point] | –
37 | NS(=O)(=O)c1ccc(N=Nc2cc3ccccc3c(C(=O)O)c2O)cc1 | inconclusive: 35.5 µM [inhibitor, full curve, poor fit] | –
38 | O=C(CCS(=O)(=O)c1cc2c(cc1Cl)NC(=O)CO2)NCc1ccc(Cl)cc1 | inconclusive: 39.8 µM [inhibitor, single point] | –
39 | O=C1NC(=O)/C(=C\c2ccc(Sc3ccc(Cl)cc3)o2)N1 | inconclusive: 15.8 µM [inhibitor, full curve, poor fit] | –
40 | CCn1c2ccccc2c2cc(CN3CCN(Cc4ccc(Br)cc4)CC3)ccc21 | – | inactive: -18.9%
41 | Cc1ccccc1Cn1nc(C)c(NC(=O)c2sc3ccccc3c2Cl)c1C | inconclusive: 31.6 µM [inhibitor, single point] | –
42 | Cc1sc2ccccc2[n+]1CC(=O)c1ccccc1 | inconclusive: 20 µM [inhibitor, single point] | –

Row | Structure (SMILES) | Potency | activity, negative = inhibition
43 | CC1(C)CC(NC(=O)c2ccccc2)CC(C)(C)N1 | – | inactive: 63.9%
44 | O=C(Nc1cc(-c2ccccc2)sc1C(=O)O)c1cccc(F)c1 | inconclusive: 891 nM [inhibitor, full curve, poor fit] and inconclusive: 25.1 µM [inhibitor, partial curve, poor fit] | –
45 | CCCCCC(=O)Nc1cccc(C2=NOC3(C2)C[C@@H](C(N)=O)N(C(=O)c2ccc(Cl)cc2)C3)c1 (stereo partly drawn) | inconclusive: 25.1 µM [inhibitor, partial curve, poor fit] | –
46 | CCOc1ccc(-n2c(SCC(=O)Nc3cc(C)ccc3C)nc3c([nH]c4ccccc43)c2=O)cc1 | – | inactive: 11.6%
47 | O=C(N/N=C/c1sc(=O)n(Cc2ccc(Br)cc2)c1Cl)c1ccco1 | inconclusive: 28.2 µM [inhibitor, partial curve, poor fit] | –
48 | O=C(Nc1ccc(F)cc1)N1CCN(c2ccc(F)cc2)CC1 | inconclusive: 89.1 µM [inhibitor, single point] | –
49 | COc1cccc(/C=C2/NC(=O)N(CC(=O)Nc3ccc(C)cc3)C2=O)c1OCc1cccc(C(=O)O)c1 | inconclusive: 39.8 µM [inhibitor, single point] | –
50 | O=C(Cc1n[nH]c(=O)[nH]c1=O)N/N=C/c1cccc(Cl)c1 | active: 89.1 µM | –
51 | COc1ccc(OCC(O)CNC(=O)/C=C/c2cccc([N+](=O)[O-])c2)cc1 (stereo not drawn) | – | inactive: -10.4%
52 | O=C(CSc1nnc2c(n1)[nH]c1ccccc12)NCc1ccco1 | inconclusive: 79.4 µM [inhibitor, single point] | –
53 | CCOc1ccc(C2C(C(=O)/C=C/c3ccco3)=C(O)C(=O)N2CCN2CCOCC2)cc1OC (stereo not drawn) | inconclusive: 20 µM [inhibitor, partial curve, poor fit] | –
54 | Cc1cc(C)n(CC(=O)N/N=C/c2ccc([N+](=O)[O-])s2)n1 | inconclusive: 1 µM [inhibitor, full curve, poor fit] | –
55 | O=S1(=O)CC/C(=N/Nc2ccc(C(F)(F)F)cn2)c2cc(F)ccc21 | – | inactive: 73.3%
56 | COc1ccc(C(=O)Cn2c(NCCCO)nc3ccccc32)cc1OC | inconclusive: 79.4 µM [inhibitor, partial curve] | –
57 | COc1ccccc1NC(=O)c1ccc(C)c(S(=O)(=O)N2CCCCC2)c1 | inconclusive: 89.1 µM [inhibitor, partial curve, poor fit] | –
58 | CCOc1ccc(-n2c(=S)sc3c(=O)[nH]c(SCC(=O)NCc4ccco4)nc32)cc1 | inconclusive: 20 µM [inhibitor, partial curve, poor fit] | –
59 | O=C(C1CCC(=O)N(C2CC2)C1)N1CCC(Oc2cccc(F)c2)CC1 (stereo not drawn) | inconclusive: 100 µM [inhibitor, single point] | –
60 | CSc1nncc(/C(C)=N\Nc2ccccc2)n1 | inconclusive: 20 µM [inhibitor, partial curve, poor fit] | –
61 | CCOc1cc(C2C3=C(CCCC3=O)N(C)C3=C2C(=O)CCC3)cc(Cl)c1O | inconclusive: 17.8 µM [inhibitor, partial curve, poor fit] | –
62 | CCOc1cc(C2c3c(-c4cc(C)ccc4O)n[nH]c3C(=O)N2CCCOC(C)C)ccc1O (stereo not drawn) | – | inactive: -13.2%
63 | OC(COCC1COc2ccccc2O1)CN1CCN(c2ccccn2)CC1 (stereo not drawn) | inconclusive: 25.1 µM [inhibitor, partial curve, poor fit] | –
